Molecules are shown by their SMILES.

Holding throughout (assay type): cell-based
One experiment relates to C4-2B. The experiment can be described thus: Cytotoxic activity test (MTT) on C4-2B prostate cancer cells. To be noted: Homo sapiens, C4-2B cells. The method, then: (§1) All prostate cancer cells were cultured with a RPMI-1640 medium containing 10% calf serum, 100 units of penicillin per milliliter and 100 µg/mL of streptomycin in a constant temperature incubator containing 5% carbon dioxide at a saturated humidity of 37° C.
(§2) Cells in the logarithmic phase of growth were taken and cultured in 96-well plates for 24 hours (5×10^3 cells/well), then treated with different concentrations of the compounds to be tested, and incubated by MTT method for 4 hours. The supernatant was removed by centrifugation, the MTT crystals were dissolved by adding DMSO, and the absorbance value was measured by an enzyme-linked immunosorbent assay at a wavelength of 570 nm. The cytotoxic activity of the compounds to be tested on cancer cells was expressed as IC50.

For a further experiment, the system named is C4-2B/ENZR. The experiment can be described thus: Cytotoxic activity test (MTT) on C4-2B/ENZR prostate cancer cells. The settings on record: Homo sapiens, C4-2B/ENZR cells. The method, then:
as §1, §2

The next experiment concerns LNcap. The experiment can be described thus: Cytotoxic activity test (MTT) on LNcap prostate cancer cells. The settings on record: Homo sapiens. The method, then:
as §1, §2

A further experiment has as its system Vcap-CRPC. The experiment can be described thus: Cytotoxic activity test (MTT) on Vcap-CRPC prostate cancer cells. To be noted: Homo sapiens. The method, then: as §1, §2

Turning to `CNC(=O)c1ccc(N2C(=S)N(c3ccc(C#N)c(C(F)(F)F)c3)C(=O)C2(C)C)cc1F` [ENZ, enzalutamide, reference compound], the IC50 with C4-2B stood at 24.8 µM; in the experiment with C4-2B/ENZR it was 62.3 µM; in the experiment with LNcap it was 20.7 µM; with Vcap-CRPC it was 57.3 µM.

The values are drawn from patent US12686686B2 (priority 2020, dated 2026).
